Laboratory results published in PMC4646521.
These are yes or no findings as the source states them, for the method shown. Binding seen in cells or lysates may run through a third protein. Some entries that bind do so weakly or less than the wild type.

Chains of the proteins cited; added tags and fusions are not shown.
UniProt P50750: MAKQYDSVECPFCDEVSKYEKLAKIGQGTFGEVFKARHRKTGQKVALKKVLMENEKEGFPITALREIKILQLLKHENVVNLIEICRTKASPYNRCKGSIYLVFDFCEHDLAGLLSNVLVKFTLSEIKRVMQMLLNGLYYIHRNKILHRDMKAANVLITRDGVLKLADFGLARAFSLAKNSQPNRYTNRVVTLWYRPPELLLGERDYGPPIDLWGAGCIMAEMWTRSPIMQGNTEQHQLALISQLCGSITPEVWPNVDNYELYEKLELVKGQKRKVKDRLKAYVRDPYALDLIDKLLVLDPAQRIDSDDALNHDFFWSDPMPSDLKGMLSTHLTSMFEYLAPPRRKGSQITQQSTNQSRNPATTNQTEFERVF
UniProt O94992: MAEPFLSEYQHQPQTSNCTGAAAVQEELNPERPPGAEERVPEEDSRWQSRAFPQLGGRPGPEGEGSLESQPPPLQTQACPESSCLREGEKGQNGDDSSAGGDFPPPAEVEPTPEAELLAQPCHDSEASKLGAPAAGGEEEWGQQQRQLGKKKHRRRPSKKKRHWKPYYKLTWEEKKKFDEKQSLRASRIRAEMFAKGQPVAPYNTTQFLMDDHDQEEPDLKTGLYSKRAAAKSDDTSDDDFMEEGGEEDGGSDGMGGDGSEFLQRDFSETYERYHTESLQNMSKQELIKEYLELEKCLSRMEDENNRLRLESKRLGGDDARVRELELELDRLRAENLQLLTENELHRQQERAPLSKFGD

Biological target: CDK9 (human (endogenous in J-Lat A2 and HeLa)) (UniProt P50750)
Assay: co-IP

HEXIM1 (from UniProt O94992 1-359)
binding: binds

B1: LARP7 (protein, UniProt Q4G0J3 1-582)
chain: METESGNQEKVMEEESTEKKKEVEKKKRSRVKQVLADIAKQVDFWFGDANLHKDRFLREQIEKSRDGYVDISLLVSFNKMKKLTTDGKLIARALRSSAVVELDLEGTRIRRKKPLGERPKDEDERTVYVELLPKNVNHSWIERVFGKCGNVVYISIPHYKSTGDPKGFAFVEFETKEQAAKAIEFLNNPPEEAPRKPGIFPKTVKNKPIPALRVVEEKKKKKKKKGRMKKEDNIQAKEENMDTSNTSISKMKRSRPTSEGSDIESTEPQKQCSKKKKKRDRVEASSLPEVRTGKRKRSSSEDAESLAPRSKVKKIIQKDIIKEASEASKENRDIEISTEEEKDTGDLKDSSLLKTKRKHKKKHKERHKMGEEVIPLRVLSKSEWMDLKKEYLALQKASMASLKKTISQIKSESEMETDSGVPQNTGMKNEKTANREECRTQEKVNATGPQFVSGVIVKIISTEPLPGRKQVRDTLAAISEVLYVDLLEGDTECHARFKTPEDAQAVINAYTEINKKHCWKLEILSGDHEQRYWQKILVDRQAKLNQPREKKRGTEKLITKAEKIRLAKTQQASKHIRFSEYD
binding: binds
